{"source": "PubChem BioAssay AID504784 | Drosophila RNAi Screening Center, 2011", "purpose": "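Search for regulators of lipid droplet storage in oleate-fed fly cells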 (primary screen)", "cells": "Drosophila Kc167 embryonic cells", "reagents": "long dsRNA against Drosophila genes, about 250 ng dsRNA per well", "timing": "4 days", "challenge": "cells fed 400 µM oleic acid bound to BSA", "measured": "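Cells imaged and segmented; ratio of lipid droplet area to nuclear area, log-transformed, then normalised as a B-score over the screen; higher means more stored lipid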", "scale": "droplet/nuclear area B-score: higher = more stored lipid (overstorage)", "note": "The screen tested about 17,000 reagents; below is a random part of those that have a named target and a result. 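Each column is one replicate's B-score; the combined score over replicates was not deposited, so single values may mislead.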 Not all columns of the deposit are shown. No sequences are given here."}
The opening 6 records, to show the layout:
{"gene":"lama","amplicon":"DRSC11361","droplet/nuclear area B-score, replicate 1":-0.924}
{"gene":"mh","amplicon":"DRSC20168","droplet/nuclear area B-score, replicate 1":0.572}
{"gene":"CG5131","amplicon":"DRSC02817","droplet/nuclear area B-score, replicate 1":0.412}
{"gene":"nesd","amplicon":"DRSC02099","droplet/nuclear area B-score, replicate 1":0.00863}
{"gene":"CG9951","amplicon":"DRSC11105","droplet/nuclear area B-score, replicate 1":-0.11}
{"gene":"CG14312","amplicon":"DRSC14791","droplet/nuclear area B-score, replicate 1":0.336}

Main list, from the first entry:
{"gene":"lama","amplicon":"DRSC11361","droplet/nuclear area B-score, replicate 1":-0.924}
{"gene":"mh","amplicon":"DRSC20168","droplet/nuclear area B-score, replicate 1":0.572}
{"gene":"CG5131","amplicon":"DRSC02817","droplet/nuclear area B-score, replicate 1":0.412}
{"gene":"nesd","amplicon":"DRSC02099","droplet/nuclear area B-score, replicate 1":0.00863}
{"gene":"CG9951","amplicon":"DRSC11105","droplet/nuclear area B-score, replicate 1":-0.11}
{"gene":"CG14312","amplicon":"DRSC14791","droplet/nuclear area B-score, replicate 1":0.336}
{"gene":"CG15641","amplicon":"DRSC19677","droplet/nuclear area B-score, replicate 1":-0.375}
{"gene":"Rrp42","amplicon":"DRSC07161","droplet/nuclear area B-score, replicate 1":0.616}
{"gene":"CCT4","amplicon":"DRSC02865","droplet/nuclear area B-score, replicate 1":1.26}
{"gene":"Vps36","amplicon":"DRSC09785","droplet/nuclear area B-score, replicate 1":-1.47}
{"gene":"CG43078","amplicon":"DRSC10292","droplet/nuclear area B-score, replicate 1":-1.73}
{"gene":"CG43078","amplicon":"DRSC10608","droplet/nuclear area B-score, replicate 1":-0.808}
{"gene":"CG43078","amplicon":"DRSC21541","droplet/nuclear area B-score, replicate 1":1.68}
{"gene":"CG43078","amplicon":"DRSC22327","droplet/nuclear area B-score, replicate 1":1.45}
{"gene":"CG17065","amplicon":"DRSC20544","droplet/nuclear area B-score, replicate 1":-1.22}
{"gene":"Lamtor4","amplicon":"DRSC08436","droplet/nuclear area B-score, replicate 1":0.382}
{"gene":"l(2)09851","amplicon":"DRSC04858","droplet/nuclear area B-score, replicate 1":0.0813}
{"gene":"Sec22","amplicon":"DRSC18538","droplet/nuclear area B-score, replicate 1":-1.13}
{"gene":"CG9154","amplicon":"DRSC03150","droplet/nuclear area B-score, replicate 1":-0.185}
{"gene":"Prosbeta1","amplicon":"DRSC07159","droplet/nuclear area B-score, replicate 1":-0.562}
{"gene":"CAHbeta","amplicon":"DRSC14449","droplet/nuclear area B-score, replicate 1":-0.17}
{"gene":"Arp5","amplicon":"DRSC16350","droplet/nuclear area B-score, replicate 1":-0.721}
{"gene":"bnl","amplicon":"DRSC13377","droplet/nuclear area B-score, replicate 1":-0.178}
{"gene":"bnl","amplicon":"DRSC16913","droplet/nuclear area B-score, replicate 1":-1.38}
{"gene":"bnl","amplicon":"DRSC23212","droplet/nuclear area B-score, replicate 1":0.416}
{"gene":"CG15614","amplicon":"DRSC06567","droplet/nuclear area B-score, replicate 1":2.78}
{"gene":"NitFhit","amplicon":"DRSC08680","droplet/nuclear area B-score, replicate 1":-0.917}
{"gene":"Obp18a","amplicon":"DRSC19736","droplet/nuclear area B-score, replicate 1":-0.36}
{"gene":"COX6B","amplicon":"DRSC19590","droplet/nuclear area B-score, replicate 1":5.04}
{"gene":"nab","amplicon":"DRSC08455","droplet/nuclear area B-score, replicate 1":-0.563}
{"gene":"nab","amplicon":"DRSC08456","droplet/nuclear area B-score, replicate 1":-0.188}
{"gene":"wls","amplicon":"DRSC10605","droplet/nuclear area B-score, replicate 1":-0.344}
{"gene":"Phb1","amplicon":"DRSC03563","droplet/nuclear area B-score, replicate 1":1.26}
{"gene":"SPR","amplicon":"DRSC17886","droplet/nuclear area B-score, replicate 1":-1.35}
{"gene":"SPR","amplicon":"DRSC18114","droplet/nuclear area B-score, replicate 1":-1.14}
{"gene":"SPR","amplicon":"DRSC21557","droplet/nuclear area B-score, replicate 1":-0.0153}
{"gene":"Flo1","amplicon":"DRSC07427","droplet/nuclear area B-score, replicate 1":-2.69}
{"gene":"CG31161","amplicon":"DRSC16144","droplet/nuclear area B-score, replicate 1":0.0611}
{"gene":"zen2","amplicon":"DRSC12633","droplet/nuclear area B-score, replicate 1":-0.00126}
{"gene":"CG13551","amplicon":"DRSC21847","droplet/nuclear area B-score, replicate 1":0.122}
{"gene":"CG34367","amplicon":"DRSC02238","droplet/nuclear area B-score, replicate 1":-1.57}
{"gene":"CG34367","amplicon":"DRSC02850","droplet/nuclear area B-score, replicate 1":-0.515}
{"gene":"wek","amplicon":"DRSC03561","droplet/nuclear area B-score, replicate 1":1.52}
{"gene":"CG7300","amplicon":"DRSC03044","droplet/nuclear area B-score, replicate 1":1.4}
{"gene":"Dnaaf5","amplicon":"DRSC13032","droplet/nuclear area B-score, replicate 1":-0.00944}
{"gene":"ida","amplicon":"DRSC08163","droplet/nuclear area B-score, replicate 1":0.0349}
{"gene":"Ugt303A1","amplicon":"DRSC15641","droplet/nuclear area B-score, replicate 1":0.0332}
{"gene":"usp","amplicon":"DRSC18847","droplet/nuclear area B-score, replicate 1":0.588}
{"gene":"CG13978","amplicon":"DRSC14720","droplet/nuclear area B-score, replicate 1":-0.897}
{"gene":"Sardh","amplicon":"DRSC06981","droplet/nuclear area B-score, replicate 1":-0.388}
{"gene":"CG3491","amplicon":"DRSC01934","droplet/nuclear area B-score, replicate 1":-1.07}
